Test results reported in publication PMC6527379.
No constants are given. Whether binding was seen depends on the method and setting. In cells and extracts the contact can be indirect. Binding calls can cover weak binding; strength is not graded here.

Columns and labels:
[1] = molecular target: E-cadherin (human (endogenous in T47D)); assay: FRET or BRET; acceptor photobleaching FRET on fixed, immunostained cells (donor FITC, acceptor rhodamine on secondary antibodies), confocal microscopy; cells treated with EGF (100 nM) or E2 (10 nM; 30 minutes or 6 hours)
[2] = molecular target: β-tubulin (human (endogenous in T47D)); assay: as above
[3] = molecular target: E-cadherin (human (endogenous in T47D)); assay: co-IP; endogenous proteins of T47D cells lysed in RIPA buffer; ~2 mg lysate with 2 ug anti-E-cadherin or anti-β-catenin antibody overnight at 4°C, protein A/G agarose beads, western blot; cells with or without EGTA (4 mM), Ca2+ (1.8 mM) added after EGTA; irrelevant IgG as negative control

- binding [1]: binds
- binding [2]: binds
- binding [3]: binds
B1: Small G protein signalling modulator 2 (SGSM2) (protein, UniProt O43147 1-1006)
chain: MGSAEDAVKEKLLWNVKKEVKQIMEEAVTRKFVHEDSSHIIALCGAVEACLLHQLRRRAAGFLRSDKMAALFTKVGKTCPVAGEICHKVQELQQQAEGRKPSGVSQEALRRQGSASGKAPALSPQALKHVWVRTALIEKVLDKVVQYLAENCSKYYEKEALLADPVFGPILASLLVGPCALEYTKLKTADHYWTDPSADELVQRHRIRGPPTRQDSPAKRPALGIRKRHSSGSASEDRLAACARECVESLHQNSRTRLLYGKNHVLVQPKEDMEAVPGYLSLHQSAESLTLKWTPNQLMNGTLGDSELEKSVYWDYALVVPFSQVVCIHCHQQKSGGTLVLVSQDGIQRPPLHFPQGGHLLSFLSCLENGLLPRGQLEPPLWTQQGKGKVFPKLRKRSSIRSVDMEEMGTGRATDYVFRIIYPGHRHEHNAGDMIEMQGFGPSLPAWHLEPLCSQGSSCLSCSSSSSPHATPSHCSCIPDRLPLRLLCESMKRQIVSRAFYGWLAHCRHLSTVRTHLSALVHHSVIPPDRPPGASAGLTKDVWSKYQKDKKNYKELELLRQVYYGGIEHEIRKDVWPFLLGHYKFGMSKKEMEQVDAVVAARYQQVLAEWKACEVVVRQREREAHPATRTKFSSGSSIDSHVQRLIHRDSTISNDVFISVDDLEPPEPQDPEDSRPKPEQEAGPGTPGTAVVEQQHSVEFDSPDSGLPSSRNYSVASGIQSSLDEGQSVGFEEEDGGGEEGSSGPGPAAHTLREPQDPSQEKPQAGELEAGEELAAVCAAAYTIELLDTVALNLHRIDKDVQRCDRNYWYFTPPNLERLRDVMCSYVWEHLDVGYVQGMCDLLAPLLVTLDNDQLAYSCFSHLMKRMSQNFPNGGAMDTHFANMRSLIQILDSELFELMHQNGDYTHFYFCYRWFLLDFKRELLYEDVFAVWEVIWAARHISSEHFVLFIALALVEAYREIIRDNNMDFTDIIKFFNERAEHHDAQEILRIARDLVHKVQMLIENK
